Experimental data from the supplement of paper PMC10338343.
± gives the standard deviation. The entries are a selection whose mix differs from that of the whole data set. Many of these values have a large error.

These sequences were tested on MIWI (PIWIL1) piRISC loaded with L1MC piRNA (30 nt) (assay: pre-steady-state target cleavage rate (min^-1); MIWI and MILI are mouse PIWI proteins and EfPiwi is from a freshwater sponge; tags in brackets are library labels; higher = faster piRNA-guided slicing of the target). Settings: guide: L1MC piRNA 5'p-UAACUAAAUACUAUGCAAGCUGUAGGUCCU; auxiliary factor: 500 nM mouse GTSF1.
In short: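 The pre-steady-state cleavage rate came from a burst-and-steady-state fit to pooled data from three Cleave-'n-Seq trials, in which uncleaved targets were sequenced and normalised to depth and to weakly complementary targets. Each reaction held 0.1 nM transcribed, DNA-blocked target RNA library and 1 nM active affinity-purified piRISC carrying one synthetic guide, with or without 500 nM GTSF1 partner protein, in HEPES–potassium acetate buffer at 33 °C for 0–8 or 0–960 min. k3 was capped at 0.0001 min^-1.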

Row | Sequence | pre-steady-state target cleavage rate
1 | UCGACCUACAGCUGCAUAGUAUUUAGUUA | 1.3 ± 0.079
2 | UCCACCUACAGCUUGCAUAGUAUAUACAAA | 0.413 ± 0.089
3 | UCGACCUACACUUGCAUAGUAUUUAGUUA | 1.09 ± 0.045
4 | UGGACCUACAGCUUGCAUAGUAUUUAGUUUA | 1.56 ± 0.086
5 | ACCUCCUACAGCUUGCAUAGUAUUUAGUAA | 0.85 ± 0.046
6 | UCCACCAACAGCAUGCAUAGUAUUUAGUUA | 0.943 ± 0.032
7 | UGGUCGUACAGCUUGCAUAGUAUUUAGUUA | 1.33 ± 0.056
8 | AGGACCAACAGCUUGCAUAGUAUUUAGUUA | 1.4 ± 0.05
9 | UCGUCCUACAGCUUGCAAAGUAUUUAGUUA | 1.3 ± 0.032
10 | UGGACCUACAGCUUGAUAGUAUUUAGUUA | 1.03 ± 0.096
11 | AGGACCUACUGCUUGCAUAGUAUUUAGUAA | 0.861 ± 0.077
12 | UCCACGAUCAGCUUGCAUAGUAUUUAGUUA | 1.55 ± 0.058
13 | UGGACCUACAGCUUGCAUAGUAUAUAGUAA | 0.356 ± 0.038
14 | UGGACCUACCGCUUGCAUAGUAUUUAGUUA | 1.57 ± 0.11
15 | AGGACAUACAGCUUGCAUAGUAUUUAGUUA | 1.32 ± 0.055
16 | UCCUGGAUGUCCUUGGUUAGUAUUUAGUUA | 0.00278 ± 0.0049
17 | UCCACCGUACAGCUUGCAUAGUAUUUAGUUA | 1.18 ± 0.054
18 | UGGACCUACAGGUUGCAUAGUAAUUAGUUA | 0.731 ± 0.055
19 | UCCACCUACAGCUUGUAUAGUAUUUAGUUA | 1.18 ± 0.048
20 | AGGCACCUACAGCUUGCAUAGUAUUUAGUUA | 2.18 ± 0.8

Row | Sequence | pre-steady-state target cleavage rate
21 | UCCUCCUACAGCUUGAUAGUAUUUAGUUA | 0.824 ± 0.05
22 | UCGUCCUACACCUUGCAUAGUAUUUAGUUA | 0.986 ± 0.045
23 | AGGACCUACAGCUUGCAUAGAUAUUUAGUUA | 0.143 ± 0.048
24 | UCCUGGAUGUCGAUGCAUAGUAUAUUAGUUA | 0.000708 ± 0.015
25 | UGGACGUACUGCUUGCAUAGUAUUUAGUUA | 1.01 ± 0.051
26 | UCGAACCUACAGCUUGCAUAGUAUUUAGUUA | 1.37 ± 0.046
27 | UGGACCUACAGCUUGCAUAGUAUAAACAAA | 0.14 ± 0.028
28 | UCCUGCUACAGCUUGGAUAGUAUUUAGUUA | 1.29 ± 0.12
29 | UGGACCUACAGCUUGCAUAGUAUUUAGUUG [g2:g29:cont:t1G] | 0.456 ± 0.037
30 | UGGACGUACAGCUUGCAUAGUAUUAAGUUA | 0.721 ± 0.069
31 | UCCACCUACAGCUUGCAUAGUAUUUCAGUUA | 0.691 ± 0.081
32 | UGGUCCUUCAGCUUGCAUAGUAUUUAGUUA | 1.22 ± 0.059
33 | UCGACCUACAGCUUGCGUAGUAUUUAGUUA | 1.86 ± 0.066
34 | UCCACCUACAGCUUGCAUAAUAUUUAGUUA | 0.552 ± 0.049
35 | UCGACCUACAGCUUGCAAAGUAUUUACAAA | 0.33 ± 0.035
36 | UCGAGCUACACCUUGCAUAGUAUUUAGUUA | 1.01 ± 0.046
37 | UGGACACUACAGCUUGCAUAGUAUUUAGUUA | 1.04 ± 0.063
38 | AGGACCUGACAGCUUGCAUAGUAUUUAGUUA | 1.17 ± 0.07
39 | UGGACCUACUGCAUGCAUAGUAUUUAGUUA | 1.27 ± 0.08
40 | AGGACCUACACCUUGCAUAGUAUUUAGUUA | 1.17 ± 0.037

Looked up above.
Under pre-steady-state target cleavage rate, UGGACACUACAGCUUGCAUAGUAUUUAGUUA shows 1.04 ± 0.063
Under pre-steady-state target cleavage rate, UGGUCCUUCAGCUUGCAUAGUAUUUAGUUA shows 1.22 ± 0.059
